PubChem BioAssay AID504786 | Drosophila RNAi Screening Center, 2011

Purpose: 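Positive regulators of HIF-driven reporter output in Drosophila cells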 (primary screen)
System: Drosophila S2 cells with a stable HIF luciferase reporter
Reagents: long dsRNA against Drosophila genes, about 0.2 µg dsRNA per well of a 384-well plate
Time to read-out: three days of knock-down, then 20 h of DFO before reading
Challenge: desferrioxamine (DFO) at 100 µM, an iron chelator that mimics hypoxia, for 20 h
Measured: 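HIF reporter luminescence in cells given 100 µM DFO for 20 h, using the mouse ldh-a hypoxia-response element, scored as per-plate z-scores; higher means greater loss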
Reading the numbers: z-score: higher = stronger loss of HIF reporter signal
The deposit covers about 21,000 reagents; below is an unselected part of those that have a named target and a result. 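Primary screen; positive scores mean lost reporter signal, so the sign may be inverted from the usual convention.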 Names joined by + are all predicted targets of the reagent. Not all columns of the deposit are shown.

target gene	PubChem SID	z-score, replicate 1	z-score, replicate 2	z-score, replicate 3
CG17681	SID104182424	-0.2	-0.4	
l(1)sc	SID104198581	-0.2	-0.3	
Srr	SID104196174	-0.2	-0.5	
Patsas	SID104182767	-0.2	-0.4	
CG31343	SID104195679	-0.1	0	
Toll-9	SID104191568	-0.2	-0.4	
CG10086	SID104193975	-0.2	-0.7	
CG10011	SID104193966	-0.4	-0.7	
Fit1	SID104188242	-0.3	-0.4	
Nup43	SID104196071	-0.6	0.1	
CG13054	SID104189727	-0.4	-0.6	
CG32669	SID104198656	-0.3	-0.3	
CG6927	SID104198199	0	-0.2	
Atg14	SID104194213	-0.4	-0.2	
CNBP	SID104183908	-0.2	0.2	
CNBP	SID104184211	-0.3	-0.2	-0.6
Grl36b	SID104181419	0	0.2	
CG42686 (retired record)	SID104195039	3.9	0.1	
CG42686 (retired record)	SID104195040	-0.1	-0.3	
Vps20	SID104184240	-0.4	-0.3	
elav	SID104198564	-0.3	-0.6	
CG10911	SID104185800	-0.5	-0.3	
CG3081	SID104198363	-0.2	-0.2	
CheB93a	SID104194836	0.2	-0.7	
GrlHz	SID104184216	-0.2	0.1	
CG6028	SID104195743	-0.3	0.3	
zfh2	SID104196970	2.1	2.1	
CG31223	SID104194907	-0.1	0.7	
l(2)k09848	SID104184686	-0.1	0.4	
Sodq	SID104195716	-0.2	-0.6	
alpha-Man-IIa	SID104195185	-0.3	-0.4	
Kaz1-ORFB + Kaz1-ORFA	SID104188461	-0.3	0.7	
GPHR	SID104186867	-0.2	-0.3	
JhI-26	SID104186643	-0.3	-0.5	
